Assay results taken from PubChem BioAssay AID2685 (National Center for Advancing Translational Sciences (NCATS), 2010).
Some of the results follow. Shown are side measurements of this screen, not its main read-out; they come without a call. Compounds called inactive in the main read-out are mostly missing here. The note in brackets gives the kind of curve behind each potency; many fits are weak.

Test: qHTS Assay for Lipid Storage Modulators in Drosophila S3 Cells;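 on cell number change: cells counted by Cell Tracker Red CMTPX staining in the red channel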
Conditions: BODIPY lipid droplet fluorescence, 18-24 h; for cell number change: measured here: cell count max response, cells fed with added oleic acid
Summary of the method: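 Drosophila S3 cells loaded with oleic acid (400 uM, as added) and compounds at several concentrations; lipid droplets imaged by 488-nm laser-scanning cytometry, 500–530 nm intensity and object ratio to cell channel. Percent activity normalized to 20 uM Triacsin C.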

[1] = measured here: cell number channel AC50, cells fed with added oleic acid
[2] = measured here: lipid fluorescence (Fed channel) AC50, cells fed with added oleic acid

Row | Compound | AC50 [1] | cell number change [%] | AC50 [2]
1 | Cc1c(C(=O)O)oc2ccc3c(c12)C(O)CC(C)(C)O3 (centres undefined) | 0.0461 µM [rising, full curve, poor fit] | – | –
2 | Fc1ccccc1NC(=S)NCCc1cccc(Cl)c1 | – | -2.6 | 29.1 µM [falling, single point]
3 | CCCCCC1CCC(c2ccc(/C(N)=N/O)cc2)CC1 (centres undefined) | – | -18.4 | –
4 | O=C(CN1C(=O)NC2(CCCCC2)C1=O)Nc1ccccc1Cl | – | -1.18 | –
5 | CCn1c(SCC(=O)Nc2nc3c(s2)CCCC3)nc2c1c(=O)n(C)c(=O)n2C | – | 14.7 | –
6 | COC(=O)c1ccccc1NS(=O)(=O)c1ccc2[nH]c(=O)[nH]c2c1 | – | 18.6 | 3.26 µM [rising, single point]
7 | CCNC(=S)N/N=C(\C)c1ccc(Cl)s1 | – | -3.86 | –
8 | COc1ccccc1S(=O)(=O)Cc1ccc(C(=O)N2CCCC2)o1 | – | 5.97 | 5.8 µM [rising, full curve]
9 | COc1ccc(NC(=O)CCNS(=O)(=O)c2ccc(Cl)c([N+](=O)[O-])c2)cc1S(N)(=O)=O | – | – | 0.206 µM [falling, single point]
10 | CC(Sc1nnc2n1CCCCC2)C(=O)Nc1ccc(S(N)(=O)=O)cc1 (centres undefined) | – | -4.06 | 14.6 µM [rising, partial curve, poor fit]
11 | C/C(=N\NC(=O)NC1CCCCC1)c1ccc(OC(F)F)cc1OC(F)F | 0.206 µM [rising, full curve, poor fit] | 38.2 | –
12 | COCc1cc(C)n(CC(=O)Nc2ccc(Cl)cc2Cl)c(=O)c1C#N | 8.2 µM [rising, partial curve, poor fit] | 67.1 | –
13 | CCc1ccc(CN(C(=O)c2cc3ccccc3oc2=O)C2CCS(=O)(=O)C2)cc1 (centres undefined) | 6.51 µM [falling, single point] | -15.1 | 6.51 µM [falling, single point]
14 | COc1ccc(OC)c(Nc2ncnc3ccc(Br)cc23)c1 | – | -15.2 | 0.58 µM [falling, single point]
15 | O=C(NC1CCCCCC1)c1ccc(CS(=O)Cc2ccccc2Cl)o1 (centres undefined) | – | -4.58 | 29.1 µM [falling, single point]
16 | CC(C)(C)N(Cc1ccccc1)C(=O)COC(=O)C1=NN(c2ccccc2)C(=O)CC1 | 18.4 µM [falling, single point] | -99.5 | 3.26 µM [falling, full curve]
17 | Cc1cc(NC(=O)c2ccccc2-c2ccccc2)ccc1Br | – | 19.7 | –
18 | COc1ccc(C(C(=O)NCC2CCCO2)N(C(=O)CNC(=O)c2cccs2)c2ccc(C)cc2)cc1OC (centres undefined) | – | 12.6 | –
19 | CC(C)(C)NC(=O)C(c1ccncc1)N(Cc1ccco1)C(=O)c1ccc(-c2ccccc2)[nH]1 (centres undefined) | – | 15.5 | –
20 | COCCN1Cc2cccc(C(=O)Nc3cc(OC)ccc3OC)c2C1=O | – | 5.06 | 0.00461 µM [rising, full curve, poor fit]
21 | CS(=O)(=O)N(CC(=O)O)c1cccc(Cl)c1 | 5.17 µM [falling, partial curve] | -111 | 2.59 µM [falling, full curve]
22 | O=S(=O)(NC1CCCCC1N1CCN(c2ccccc2F)CC1)c1ccccc1 (centres undefined) | – | -11.9 | 16.4 µM [rising, single point]

Row | Compound | AC50 [1] | cell number change [%] | AC50 [2]
23 | CC(C)C[C@H](NC(=O)CCn1nnc2ccccc2c1=O)C(=O)O | 20.6 µM [falling, single point] | -38.3 | –
24 | COc1cccc(NC(=S)NC(=O)/C=C/c2ccc(F)cc2)c1 | 0.164 µM [rising, full curve] | 17.5 | 0.651 µM [rising, partial curve, poor fit]
25 | O=C(Nc1nc(-c2ccccc2)c(-c2ccccc2)s1)c1ccc(S(=O)(=O)N2CCCCC2)cc1 | – | -9.5 | –
26 | Cc1cc(C(=O)Nc2ccccc2)c(C)o1 | – | 15.7 | 11.6 µM [falling, partial curve]
27 | COc1ccc2cc3cc(C(=O)NCC4COc5ccccc5O4)oc3nc2c1 (centres undefined) | – | – | 29.1 µM [falling, single point]
28 | Cc1ccc(C(=O)NCC(=O)Nc2ccc(F)c(F)c2F)cc1 | – | 16.3 | 8.2 µM [rising, partial curve, poor fit]
29 | Cc1ccc(OCCC(=O)OCC(=O)NCc2ccccc2)cc1 | – | 10.3 | 20.6 µM [falling, partial curve, poor fit]
30 | COc1ccccc1CCNC(=O)C1(C)CC1(Cl)Cl (centres undefined) | – | 18.3 | 29.1 µM [rising, partial curve]
31 | Cc1c(Cl)cn2c(=O)cc(CN(C)Cc3nc4ccccc4c(=O)[nH]3)nc2c1Cl | 0.0517 µM [rising, full curve, poor fit] | – | –
32 | N/C(=N\N=C\c1cccs1)SC1CC(=O)N(c2ccc(Br)cc2)C1=O (centres undefined) | – | 37.1 | –
33 | Cc1cnc(C(=O)N2CCCC(N3CCN(c4ccccc4F)CC3)C2)cn1 (centres undefined) | 0.103 µM [falling, full curve, poor fit] | -20.4 | –
34 | CC(C)Nc1nc(SCC(=O)Nc2ccccc2)nc(N2CCOCC2)n1 | 0.82 µM [rising, full curve] | – | –
35 | Cc1n[nH]c(=O)nc1NC1CCCCC1 | – | -5.53 | –
36 | O=C(Nc1cccc2ccccc12)N1CCN(Cc2ccccc2)CC1 | – | -2.36 | 0.82 µM [falling, single point]
37 | COc1ccc(CCN(C)C(=O)CCCN2C(=O)c3cccc4cccc(c34)C2=O)cc1OC | 8.2 µM [falling, partial curve, poor fit] | -34.7 | 6.51 µM [falling, single point]
38 | CC(C)(C)c1ccc(C(=O)NCCCNC(=O)c2ccco2)cc1 | – | 1.9 | 6.51 µM [falling, single point]
39 | CC(=O)Nc1ccc(NC(=O)Cn2c(=O)n(-c3ccc(F)cc3)c(=O)c3oc4ccccc4c32)cc1 | – | 19 | 0.146 µM [rising, full curve, poor fit]
40 | NC(=O)CC(NC(=O)Cc1ccc(Br)cc1)c1ccc(N2CCCCCCC2)c([N+](=O)[O-])c1 (centres undefined) | 29.1 µM [rising, single point] | 74.3 | 29.1 µM [falling, single point]
41 | Cc1ccc(S(=O)(=O)N2CCCC(C(=O)NC3CCCC3)C2)cc1Cl (centres undefined) | 6.51 µM [rising, single point] | 1.32 | –
42 | Cc1ccccc1NC(=O)c1ccc(-n2cncn2)nc1 | 0.116 µM [rising, full curve, poor fit] | – | –
43 | NC(=O)c1ccccc1Nc1nc2nc3ccccc3c(=O)n2cc1Br | 0.058 µM [rising, full curve, poor fit] | 28.9 | –
44 | NNC(=O)CCN1CCN(C(c2ccccc2)c2ccccc2)CC1 | – | – | 6.51 µM [falling, partial curve, poor fit]

Entries of single compounds, looked up by structure.
CC(C)Nc1nc(SCC(=O)Nc2ccccc2)nc(N2CCOCC2)n1 reads AC50 [1]: 0.82 µM [rising, full curve]
Cc1ccc(S(=O)(=O)N2CCCC(C(=O)NC3CCCC3)C2)cc1Cl (centres undefined) reads AC50 [1]: 6.51 µM [rising, single point]; cell number change [%]: 1.32
COc1cccc(NC(=S)NC(=O)/C=C/c2ccc(F)cc2)c1 reads AC50 [1]: 0.164 µM [rising, full curve]; cell number change [%]: 17.5; AC50 [2]: 0.651 µM [rising, partial curve, poor fit]

The list goes on.

Row | Compound | AC50 [1] | cell number change [%] | AC50 [2]
45 | CCN1CCN(c2ncnc3c2oc2nc(C(C)C)c4c(c23)CCC4)CC1 | – | -12.3 | 7.31 µM [falling, single point]
46 | CCc1ccc2[nH]c(=O)c(CN(CC3CCCO3)C(=S)NCc3ccco3)cc2c1 (centres undefined) | – | -12.3 | 29.1 µM [falling, single point]
47 | COc1cc(/C=C2\C(=O)N(c3ccccc3)N=C2C)ccc1Oc1ccc([N+](=O)[O-])cc1[N+](=O)[O-] | 6.51 µM [falling, single point] | 14.9 | 5.17 µM [falling, single point]
48 | c1ccc(COc2ccc(Nc3ncnc4nc[nH]c34)cc2)cc1 | 1.84 µM [rising, partial curve] | – | 0.731 µM [rising, partial curve, poor fit]
49 | Cc1ccccc1NC(=O)Cc1nc(COC(=O)c2cc(Cl)ccc2O)cs1 | – | – | 3.66 µM [falling, partial curve]
50 | CNC(=O)CSc1nnc(-c2ccco2)n1-c1cccc(C)c1 | – | -8.4 | –
51 | CSc1nc(C)c2c(n1)N(c1ccc(C(F)(F)F)cc1)CC2 | – | – | 0.206 µM [falling, full curve, poor fit]
52 | CCCC(C)c1nnc(NC(=O)C2CC(=O)N(c3ccc(OCC)cc3)C2)s1 (centres undefined) | – | -17.1 | 20 µM [falling, single point]
53 | CCC(CC)C(=O)Nc1nc(-c2ccc3c(c2)CCN3C(=O)C2CC2)c(C)s1 | – | 6.67 | 5.17 µM [rising, single point]
54 | CC(NS(=O)(=O)c1ccc(Br)cc1)C(=O)NCc1ccc2c(c1)OCO2 (centres undefined) | – | 20.9 | 7.94 µM [rising, partial curve]
55 | CCn1c(COc2ccc(Cl)cc2)nnc1SCC(=O)Nc1ccc2c(c1)OCCO2 | – | -5.47 | –
56 | O=C(CSc1n[nH]c(-c2ccccc2)n1)N1CCCC1 | – | -26.3 | –
57 | Cc1cccc(C)c1-n1nnnc1C1(Nc2ccccc2)CCCCC1 | – | 18.6 | –
58 | CCC1CCc2c(sc(NC(=O)C3CC=CCC3C(=O)O)c2C#N)C1 (centres undefined) | – | -3.5 | 0.0651 µM [rising, partial curve]
59 | COc1ccc(CCNC(=O)Cn2cccc2C(=O)c2ccccc2C)cc1OC | – | – | 16.4 µM [falling, partial curve]
60 | CCOc1ccccc1CN1CCN(S(=O)(=O)CC)CC1 | – | -13.6 | 1.84 µM [falling, partial curve]
61 | O=C(NC1CCN(C(=S)NCc2ccco2)CC1)c1cccc(F)c1 | – | 34.2 | –
62 | COc1ccc(NC(=O)CC23CC4CC(CC(Br)(C4)C2)C3)c(OC)c1 | – | -7.69 | 29.1 µM [rising, partial curve, poor fit]
63 | Oc1ccc(COC2CCCC2)c2cccnc12 | – | -22.5 | –
64 | CCN(Cc1nc2cc(Cl)ccc2c(=O)[nH]1)C(=O)C1CC(=O)N(c2cccc3ccccc23)C1 (centres undefined) | – | 2.01 | 2.59 µM [rising, partial curve]
